Experimental findings from the supplement of paper PMC10849652 are described below.

The chains behind the UniProt entries cited, without tags or fusion partners. Where a name states a change or a piece, a line headed by the entry shows the natural chain unless it says otherwise.
UniProt O60566, whole entry, looked up: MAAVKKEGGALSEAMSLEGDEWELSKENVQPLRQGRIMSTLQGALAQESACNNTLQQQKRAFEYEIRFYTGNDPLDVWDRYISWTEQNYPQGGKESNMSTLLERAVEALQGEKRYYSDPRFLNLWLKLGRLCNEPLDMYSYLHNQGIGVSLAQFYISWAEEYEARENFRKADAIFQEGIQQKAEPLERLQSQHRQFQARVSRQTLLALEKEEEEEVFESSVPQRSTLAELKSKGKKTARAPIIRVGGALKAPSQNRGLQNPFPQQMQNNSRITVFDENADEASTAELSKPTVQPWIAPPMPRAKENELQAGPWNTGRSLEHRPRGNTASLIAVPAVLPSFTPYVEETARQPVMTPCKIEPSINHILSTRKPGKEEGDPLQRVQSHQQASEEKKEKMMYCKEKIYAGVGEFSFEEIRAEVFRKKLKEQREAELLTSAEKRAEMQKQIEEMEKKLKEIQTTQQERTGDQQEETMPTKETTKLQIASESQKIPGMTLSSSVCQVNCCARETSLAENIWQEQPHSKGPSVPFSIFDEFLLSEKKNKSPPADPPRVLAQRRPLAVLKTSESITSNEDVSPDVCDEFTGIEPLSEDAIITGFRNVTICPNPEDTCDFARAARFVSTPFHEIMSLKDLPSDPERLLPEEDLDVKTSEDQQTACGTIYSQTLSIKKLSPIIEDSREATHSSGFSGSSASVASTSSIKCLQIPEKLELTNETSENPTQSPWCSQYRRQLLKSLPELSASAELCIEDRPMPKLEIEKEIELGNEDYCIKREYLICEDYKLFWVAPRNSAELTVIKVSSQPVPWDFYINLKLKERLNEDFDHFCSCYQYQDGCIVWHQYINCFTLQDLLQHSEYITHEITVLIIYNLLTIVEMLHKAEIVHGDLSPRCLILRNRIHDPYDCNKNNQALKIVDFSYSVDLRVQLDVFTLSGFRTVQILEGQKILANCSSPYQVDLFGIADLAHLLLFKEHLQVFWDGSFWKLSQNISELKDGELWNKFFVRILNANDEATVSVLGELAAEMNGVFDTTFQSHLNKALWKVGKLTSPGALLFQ
UniProt Q8WUR7: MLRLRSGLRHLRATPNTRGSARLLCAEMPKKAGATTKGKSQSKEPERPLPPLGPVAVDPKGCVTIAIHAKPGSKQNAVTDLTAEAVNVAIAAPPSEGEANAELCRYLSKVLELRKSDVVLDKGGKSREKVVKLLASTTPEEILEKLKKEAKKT
UniProt Q14012: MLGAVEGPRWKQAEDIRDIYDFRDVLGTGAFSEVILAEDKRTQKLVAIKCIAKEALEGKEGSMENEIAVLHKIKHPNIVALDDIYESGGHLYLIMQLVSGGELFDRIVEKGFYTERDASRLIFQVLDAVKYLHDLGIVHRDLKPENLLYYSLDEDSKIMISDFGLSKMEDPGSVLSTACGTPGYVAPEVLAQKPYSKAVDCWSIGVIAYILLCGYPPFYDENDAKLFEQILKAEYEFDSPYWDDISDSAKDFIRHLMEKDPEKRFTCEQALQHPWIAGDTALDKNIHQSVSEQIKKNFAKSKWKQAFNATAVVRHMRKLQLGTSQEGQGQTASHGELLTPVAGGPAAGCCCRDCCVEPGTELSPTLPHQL
UniProt Q9P1Z2: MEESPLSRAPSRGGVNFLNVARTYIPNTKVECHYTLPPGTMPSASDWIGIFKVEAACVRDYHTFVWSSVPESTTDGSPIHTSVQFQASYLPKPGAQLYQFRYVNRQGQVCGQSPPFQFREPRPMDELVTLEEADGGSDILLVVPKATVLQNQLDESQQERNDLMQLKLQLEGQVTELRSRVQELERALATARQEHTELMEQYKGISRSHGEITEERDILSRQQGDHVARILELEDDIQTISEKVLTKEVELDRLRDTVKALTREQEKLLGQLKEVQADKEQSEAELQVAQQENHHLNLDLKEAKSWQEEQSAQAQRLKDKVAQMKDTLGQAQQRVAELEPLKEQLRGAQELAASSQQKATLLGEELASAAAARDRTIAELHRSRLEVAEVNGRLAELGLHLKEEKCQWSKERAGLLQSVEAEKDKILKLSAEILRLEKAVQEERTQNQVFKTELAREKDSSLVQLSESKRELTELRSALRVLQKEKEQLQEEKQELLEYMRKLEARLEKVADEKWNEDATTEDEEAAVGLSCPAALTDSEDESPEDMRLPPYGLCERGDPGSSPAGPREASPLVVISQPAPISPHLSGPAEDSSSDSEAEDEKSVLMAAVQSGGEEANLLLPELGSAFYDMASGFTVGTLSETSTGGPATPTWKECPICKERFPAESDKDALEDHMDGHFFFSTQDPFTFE
UniProt Q9BRJ6: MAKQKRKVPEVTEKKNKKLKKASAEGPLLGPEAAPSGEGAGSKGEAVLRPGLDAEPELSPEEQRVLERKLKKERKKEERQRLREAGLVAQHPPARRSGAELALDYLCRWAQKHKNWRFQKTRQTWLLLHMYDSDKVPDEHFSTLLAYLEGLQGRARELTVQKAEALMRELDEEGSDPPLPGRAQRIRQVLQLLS
UniProt Q07021: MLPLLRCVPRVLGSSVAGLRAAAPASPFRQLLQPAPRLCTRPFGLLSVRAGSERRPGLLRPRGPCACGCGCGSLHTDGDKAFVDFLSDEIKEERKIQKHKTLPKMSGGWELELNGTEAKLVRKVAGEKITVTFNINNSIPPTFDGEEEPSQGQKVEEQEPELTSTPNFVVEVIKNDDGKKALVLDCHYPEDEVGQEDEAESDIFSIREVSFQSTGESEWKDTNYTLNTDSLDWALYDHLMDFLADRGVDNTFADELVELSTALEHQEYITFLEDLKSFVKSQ
UniProt Q8N1A6: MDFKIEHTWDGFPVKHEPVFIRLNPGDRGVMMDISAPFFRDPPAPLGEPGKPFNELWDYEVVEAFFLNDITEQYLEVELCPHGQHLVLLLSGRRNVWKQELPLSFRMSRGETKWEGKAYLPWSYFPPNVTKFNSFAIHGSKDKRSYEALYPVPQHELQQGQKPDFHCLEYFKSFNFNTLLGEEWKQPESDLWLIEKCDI
UniProt Q9BSU1: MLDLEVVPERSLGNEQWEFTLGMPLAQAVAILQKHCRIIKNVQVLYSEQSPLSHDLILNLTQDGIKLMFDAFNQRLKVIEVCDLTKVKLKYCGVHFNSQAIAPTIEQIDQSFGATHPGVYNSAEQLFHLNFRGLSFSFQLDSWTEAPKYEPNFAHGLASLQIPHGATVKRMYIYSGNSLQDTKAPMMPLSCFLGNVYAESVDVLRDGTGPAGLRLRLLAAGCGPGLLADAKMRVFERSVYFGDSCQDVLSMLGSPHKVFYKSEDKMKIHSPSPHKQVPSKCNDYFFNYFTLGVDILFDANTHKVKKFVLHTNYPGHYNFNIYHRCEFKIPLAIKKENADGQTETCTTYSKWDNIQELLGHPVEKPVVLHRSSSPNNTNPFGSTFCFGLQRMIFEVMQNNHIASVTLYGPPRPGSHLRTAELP
UniProt Q96GV9: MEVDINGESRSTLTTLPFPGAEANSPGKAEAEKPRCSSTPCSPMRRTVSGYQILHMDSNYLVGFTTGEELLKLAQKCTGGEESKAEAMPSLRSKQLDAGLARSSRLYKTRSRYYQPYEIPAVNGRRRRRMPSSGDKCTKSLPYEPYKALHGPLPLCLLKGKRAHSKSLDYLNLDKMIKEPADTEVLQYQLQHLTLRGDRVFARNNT
UniProt Q9H7E9: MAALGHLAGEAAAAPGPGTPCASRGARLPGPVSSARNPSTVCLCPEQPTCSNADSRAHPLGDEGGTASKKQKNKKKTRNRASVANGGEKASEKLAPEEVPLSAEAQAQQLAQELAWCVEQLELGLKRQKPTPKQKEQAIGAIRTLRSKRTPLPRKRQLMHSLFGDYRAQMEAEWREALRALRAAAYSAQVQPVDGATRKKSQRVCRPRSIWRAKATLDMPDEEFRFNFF
UniProt Q5T5Y3: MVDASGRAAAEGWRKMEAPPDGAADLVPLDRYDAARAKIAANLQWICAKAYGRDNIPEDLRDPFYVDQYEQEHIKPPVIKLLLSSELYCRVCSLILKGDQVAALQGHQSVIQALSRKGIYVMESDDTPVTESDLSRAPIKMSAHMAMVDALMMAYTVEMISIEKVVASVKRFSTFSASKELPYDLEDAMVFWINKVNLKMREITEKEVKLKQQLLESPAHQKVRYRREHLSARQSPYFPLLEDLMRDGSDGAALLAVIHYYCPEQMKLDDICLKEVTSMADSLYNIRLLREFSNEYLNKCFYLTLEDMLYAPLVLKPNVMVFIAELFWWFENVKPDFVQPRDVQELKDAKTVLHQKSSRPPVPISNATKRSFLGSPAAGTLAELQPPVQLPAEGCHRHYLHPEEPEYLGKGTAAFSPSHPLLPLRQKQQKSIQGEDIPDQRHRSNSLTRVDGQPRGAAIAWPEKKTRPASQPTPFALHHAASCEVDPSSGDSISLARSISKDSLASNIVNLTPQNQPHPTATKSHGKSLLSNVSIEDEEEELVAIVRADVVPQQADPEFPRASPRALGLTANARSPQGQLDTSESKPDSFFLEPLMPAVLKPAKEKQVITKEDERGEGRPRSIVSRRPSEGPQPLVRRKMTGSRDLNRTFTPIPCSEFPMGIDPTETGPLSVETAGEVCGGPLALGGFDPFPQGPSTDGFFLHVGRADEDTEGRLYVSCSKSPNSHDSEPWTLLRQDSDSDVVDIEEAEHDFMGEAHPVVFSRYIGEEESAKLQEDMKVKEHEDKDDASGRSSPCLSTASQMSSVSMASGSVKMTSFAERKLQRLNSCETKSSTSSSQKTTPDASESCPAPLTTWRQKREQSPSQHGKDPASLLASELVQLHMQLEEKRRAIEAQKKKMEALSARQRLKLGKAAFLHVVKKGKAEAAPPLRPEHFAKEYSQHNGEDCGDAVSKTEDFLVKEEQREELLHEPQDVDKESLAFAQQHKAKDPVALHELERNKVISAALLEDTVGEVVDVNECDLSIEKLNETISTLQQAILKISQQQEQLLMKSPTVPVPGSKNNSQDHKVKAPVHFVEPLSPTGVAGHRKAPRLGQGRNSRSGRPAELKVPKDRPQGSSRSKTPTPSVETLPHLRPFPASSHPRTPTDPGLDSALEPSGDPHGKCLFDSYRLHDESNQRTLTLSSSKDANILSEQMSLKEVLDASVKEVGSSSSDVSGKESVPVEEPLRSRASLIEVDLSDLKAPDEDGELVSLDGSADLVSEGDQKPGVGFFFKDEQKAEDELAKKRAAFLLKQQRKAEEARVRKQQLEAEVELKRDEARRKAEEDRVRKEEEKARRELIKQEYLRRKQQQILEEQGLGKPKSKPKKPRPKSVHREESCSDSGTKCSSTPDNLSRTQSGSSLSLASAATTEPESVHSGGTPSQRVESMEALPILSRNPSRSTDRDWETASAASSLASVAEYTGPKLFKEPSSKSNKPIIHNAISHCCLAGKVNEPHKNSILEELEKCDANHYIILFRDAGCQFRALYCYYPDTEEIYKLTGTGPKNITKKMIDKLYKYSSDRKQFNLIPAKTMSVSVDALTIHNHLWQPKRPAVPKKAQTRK
UniProt Q9BUW7: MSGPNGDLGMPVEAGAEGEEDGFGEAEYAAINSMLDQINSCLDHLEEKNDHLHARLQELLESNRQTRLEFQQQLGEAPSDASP
UniProt Q9H3J6: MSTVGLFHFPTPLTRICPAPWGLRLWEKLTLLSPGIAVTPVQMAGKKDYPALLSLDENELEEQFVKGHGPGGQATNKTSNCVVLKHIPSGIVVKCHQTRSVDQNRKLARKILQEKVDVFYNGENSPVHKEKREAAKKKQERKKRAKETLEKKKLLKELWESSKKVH
UniProt Q13554, whole entry, looked up: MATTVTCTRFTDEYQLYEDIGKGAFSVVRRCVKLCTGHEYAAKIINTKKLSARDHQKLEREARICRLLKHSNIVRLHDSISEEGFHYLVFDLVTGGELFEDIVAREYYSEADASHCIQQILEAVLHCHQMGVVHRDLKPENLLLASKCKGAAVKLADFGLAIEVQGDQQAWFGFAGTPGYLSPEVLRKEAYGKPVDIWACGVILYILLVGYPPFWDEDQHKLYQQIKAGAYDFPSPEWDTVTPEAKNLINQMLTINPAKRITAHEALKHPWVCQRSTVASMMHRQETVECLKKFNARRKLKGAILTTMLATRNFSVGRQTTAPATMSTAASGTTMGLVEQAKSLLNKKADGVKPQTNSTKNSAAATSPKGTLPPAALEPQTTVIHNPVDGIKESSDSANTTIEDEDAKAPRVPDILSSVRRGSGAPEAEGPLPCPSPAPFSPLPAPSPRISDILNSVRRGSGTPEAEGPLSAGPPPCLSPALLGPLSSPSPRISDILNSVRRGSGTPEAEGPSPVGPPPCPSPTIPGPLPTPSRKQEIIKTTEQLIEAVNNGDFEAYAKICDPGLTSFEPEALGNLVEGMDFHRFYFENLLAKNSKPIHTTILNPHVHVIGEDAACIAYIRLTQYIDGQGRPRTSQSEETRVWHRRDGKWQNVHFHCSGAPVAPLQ
UniProt P05937: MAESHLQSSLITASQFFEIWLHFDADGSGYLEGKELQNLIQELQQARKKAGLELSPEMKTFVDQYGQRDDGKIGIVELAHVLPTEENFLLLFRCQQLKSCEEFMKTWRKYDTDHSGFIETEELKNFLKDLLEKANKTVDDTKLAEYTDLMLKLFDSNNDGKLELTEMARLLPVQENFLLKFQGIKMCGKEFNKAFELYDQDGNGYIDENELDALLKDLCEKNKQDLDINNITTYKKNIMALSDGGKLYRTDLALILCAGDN

The other results are listed elsewhere or left out.

Compound in this assay: c1cn2cc(-c3ccc4cn[nH]c4c3)nc(Nc3ccc(N4CCOCC4)cc3)c2n1 [entospletinib]
The experiment in a line: log2 fold change, soluble protein after heating vs DMSO (PISA); higher = thermal stabilisation; K562 lysate, 10 uM; active = over 0.2 and 3.5 SD of the protein, either way, in both replicates (recomputed). In short, it runs like this:
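To prepare the extract, K562 pellets were dounce-homogenised in PBS pH 7.4 with 1 mM MgCl2, giving crude material at 1 mg/mL protein. This was treated with 10 μM compound for 30 min, then heated in aliquots for 3 min over 48°C-58°C before pooling and addition of NP-40 to 0.5% at 4°C. Centrifugation at 21,000xg for 90 min left soluble protein in the supernatant, which TMTpro 16plex LC-MS/MS quantified with equalised channel sums. Results are log-two fold changes in thermal stability compared with solvent controls, from duplicates.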
As to C1D (UniProt Q13901), the log2 fold change was inactive: -0.079.
In the case of BUB1B isoform 3 (UniProt O60566), the log2 fold change is inactive: 0.013.
CAB39 (UniProt Q9Y376): the log2 fold change is inactive: 0.005.
Take CAMKK2 (UniProt Q96RR4): the log2 fold change is inactive: 0.039.
In the case of C15orf40 (UniProt Q8WUR7), the log2 fold change is inactive: -0.02.
For the target C19orf53 (UniProt Q9UNZ5), the log2 fold change was inactive: -0.005.
The figure for CAMK1 (UniProt Q14012) is inactive: 0.115.
The figure for CALCOCO1 (UniProt Q9P1Z2) is inactive: 0.015; for C7orf50 (UniProt Q9BRJ6) it is inactive: 0.007.
Consider C1QBP (UniProt Q07021), for which the log2 fold change is inactive: 0.044.
The same measure for C4orf33 (UniProt Q8N1A6): inactive: -0.009; for C16orf70 (UniProt Q9BSU1): inactive: -0.104.
On to BZW2 (UniProt Q9Y6E2), for which the log2 fold change was inactive: 0.019.
As for C5orf30 (UniProt Q96GV9), the log2 fold change is inactive: -0.021.
In the case of C16orf58 (UniProt Q96GQ5), the log2 fold change was inactive: -0.019.
On to C8orf33 isoform 2 (UniProt Q9H7E9), for which the log2 fold change is inactive: 0.026.
With CAPZA1 (UniProt P52907), the log2 fold change is inactive: -0.015.
Consider CA8 (UniProt P35219), for which the log2 fold change is inactive: 0.027.
Regarding CAMSAP1 isoform 3 (UniProt Q5T5Y3), the log2 fold change is inactive: -0.027.
In the case of C9orf16 (UniProt Q9BUW7), the log2 fold change was inactive: 0.038.
As to C12orf65 (UniProt Q9H3J6), the log2 fold change was inactive: 0.116.
For the target CAMK2B (UniProt Q13554), the log2 fold change was inactive: -0.02.
The same measure for C4A (UniProt P0C0L4): inactive: 0.05; for CALB1 (UniProt P05937): inactive: -0.024.
